Values quoted from earlier work in US9993454B2, “Solid nanoparticle formulation of water insoluble pharmaceutical substances with reduced Ostwald ripening” (Luminus Biosciences, Inc., priority 2006, dated 2018).

aqueous solubility: about 12 mg/liter
SMILES: CC(=O)O[C@H]1C(=O)[C@@]2(C)[C@H]([C@H](OC(=O)c3ccccc3)[C@]3(O)C[C@H](OC(=O)[C@H](O)[C@@H](NC(=O)c4ccccc4)c4ccccc4)C(C)=C1C3(C)C)[C@]1(OC(C)=O)CO[C@@H]1C[C@@H]2O [Paclitaxel]
